# How the values were obtained:
# [1] = general procedure: Fmoc solid-phase peptide synthesis; 2-chlorotrityl chloride resin; BOP/HOBt/DIEA; conditions: TFA salt; for crude HPLC purity: C18 RP-HPLC
# [2] = general procedure: Fmoc solid-phase peptide synthesis; 2-chlorotrityl chloride; BOP/HOBt/DIEA; conditions: whole synthesis, TFA salt
Substance,crude HPLC purity ([1]; cyclisation step),cyclisation yield ([1]; cyclisation step),crude yield [2],crude HPLC purity ([1]; whole synthesis),crude HPLC purity ([1]; late stage modification step),step yield ([1]; late stage modification step)
Cyclo[(D)Ala-Lys(Boc)-(D)Lys(Acm)-Lys(Boc)-(D)Ala-Lys(Boc)],87%,77%,,,,
Cyclo[(D)Ala-Lys(Boc)-(D)Lys(Nps)-Lys(Boc)-(D)Ala-Lys(Boc)],60%,83%,,,,
H-(D)Ala-Lys(Boc)-(D)Lys(Acm)-Lys(Boc)-(D)Ala-Lys(Boc)-OH,,,yield=100%,73%,,
H-(D)Ala-Lys(Boc)-(D)Lys(Nps)-Lys(Boc)-(D)Ala-Lys(Boc)-OH,,,yield: 100%,60%,,
cyclo[(D)Ala-Lys-(D)Lys(Nps)-Lys-(D)Ala-Lys],,,,,66%,87%
cyclo[D)Ala-Lys-(D)Lys(Acm)-Lys-(D)Ala-Lys],,,,,86%,85%

# — US20100136034A1 (CENTRE NATIONAL DE LA RECHERCHE SCIENTIFIQUE, priority 2007, published 2010)
